No constants are given. Whether binding was seen depends on the method and setting. Tags and fused reporters may be left off the sequences shown.

The chains behind the UniProt entries cited, without tags or fusion partners. Residues count along the entry.
UniProt P02769, residues 25-607: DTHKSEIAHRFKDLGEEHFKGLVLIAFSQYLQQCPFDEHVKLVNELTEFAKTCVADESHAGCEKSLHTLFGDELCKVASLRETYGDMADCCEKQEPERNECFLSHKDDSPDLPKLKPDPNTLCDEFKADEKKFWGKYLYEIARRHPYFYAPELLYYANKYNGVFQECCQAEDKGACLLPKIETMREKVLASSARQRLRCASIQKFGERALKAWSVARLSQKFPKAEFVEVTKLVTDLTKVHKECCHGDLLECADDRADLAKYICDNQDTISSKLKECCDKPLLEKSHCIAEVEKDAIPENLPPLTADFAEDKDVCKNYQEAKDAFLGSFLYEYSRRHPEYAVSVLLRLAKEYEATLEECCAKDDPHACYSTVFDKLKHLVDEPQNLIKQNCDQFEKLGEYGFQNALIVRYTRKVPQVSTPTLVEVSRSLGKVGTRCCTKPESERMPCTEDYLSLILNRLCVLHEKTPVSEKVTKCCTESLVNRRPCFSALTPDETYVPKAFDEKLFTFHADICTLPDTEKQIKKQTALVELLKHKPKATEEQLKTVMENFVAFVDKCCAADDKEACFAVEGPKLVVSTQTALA

The experiment deals with T1, K2A1 (first of the two tandem repeats of the K2A region of knob associated histidine rich protein, KAHRP) (Plasmodium falciparum) (UniProt Q9TY99).
T1 sequence: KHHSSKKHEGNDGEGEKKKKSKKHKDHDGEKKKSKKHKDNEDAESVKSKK
In words: NMR titration; controls: 2D [15N,1H] HSQC of 15N-labelled K2A1 titrated against bovine serum albumin or human α-synuclein at 1:0.5, 1:1, 1:2 and 1:5 molar ratios; both purified.

For the substance “bovine serum albumin (from UniProt P02769 25-607)”, the binding result was “no binding (tested: up to 1:5 molar ratio)”.

These data come from publication PMC4345318, “Dynamic association of PfEMP1 and KAHRP in knobs mediates cytoadherence during Plasmodium invasion” (Scientific Reports, 2015).
